Source: PMC4431850
No constants are given. Whether binding was seen depends on the method and setting.

Amino acid sequences for entries named in this document (tags omitted). Residues count along the entry.
UniProt Q96CX2, residues 27-131: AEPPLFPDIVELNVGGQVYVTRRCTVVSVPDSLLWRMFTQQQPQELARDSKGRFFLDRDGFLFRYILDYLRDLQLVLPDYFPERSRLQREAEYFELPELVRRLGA

Columns and labels:
[1] = biological target: Cul3^NTD, N-terminal region (residues 20-381) of cullin 3 (UniProt Q13618); assay: SEC; BTB domain mixed with Cul3^NTD at 4°C in 20 mM NaP, 200 mM NaCl, 2 mM DTT pH 7.5; Superdex 200 10/30; SDS-PAGE of the peaks; both purified
[2] = biological target: Cul3^NTD, N-terminal region (residues 20-381) of cullin 3 (UniProt Q13618); assay: condition: 55 μM (as tetramer) titrated into 25 μM Cul3^NTD; ITC; BTB domain (55 μM as tetramer) titrated into Cul3^NTD (25 μM); 22°C; 20 mM NaP, 200 mM NaCl, 2 mM DTT pH 7.5; single-binding site model; both purified

binding [1]: no binding
binding [2]: no binding
Substance: BTB domain of KCTD12 (KCTD12^BTB) (from UniProt Q96CX2 27-131) (domain or fragment)
